# From PMC5996148
# Values joined by “and” are separate entries in the source; they are usually repeats but may differ in a detail not shown here. Equal entries are not always repeated. The list shows a part of the results. For some assays here: Construct or isoform of the protein are uncertain.
# Columns and labels:
# Test in all cases: protein microarray (ProtoArray v5.0), streptavidin-Alexa Fluor 647
# Settings in all cases: 3'-biotin; 20 mM Tris (pH 7.5), 5 mM MgCl2, 100 mM KCl, 0.1% Tween-20, A/T-rich and random oligonucleotide blockers; temperature not stated; high values mean tight binding
# VANGL1 = molecular target: T1, VANGL1 (UniProt Q8TAA9)
# T1 sequence: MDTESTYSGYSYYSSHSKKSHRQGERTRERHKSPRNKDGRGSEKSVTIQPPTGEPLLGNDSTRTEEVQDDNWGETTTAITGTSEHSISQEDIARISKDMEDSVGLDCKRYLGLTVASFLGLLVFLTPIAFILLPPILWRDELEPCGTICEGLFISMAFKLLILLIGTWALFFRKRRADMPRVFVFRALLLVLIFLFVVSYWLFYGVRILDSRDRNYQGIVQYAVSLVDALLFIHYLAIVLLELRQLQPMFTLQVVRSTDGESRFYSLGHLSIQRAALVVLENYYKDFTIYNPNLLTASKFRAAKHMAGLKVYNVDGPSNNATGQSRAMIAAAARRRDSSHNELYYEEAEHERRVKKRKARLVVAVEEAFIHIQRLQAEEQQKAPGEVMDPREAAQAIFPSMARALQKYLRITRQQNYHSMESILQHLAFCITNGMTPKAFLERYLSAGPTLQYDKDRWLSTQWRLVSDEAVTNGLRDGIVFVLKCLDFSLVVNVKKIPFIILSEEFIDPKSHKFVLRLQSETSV
# VAPA (human) = tested on: VAPA (human)
# VAPB (human) = tested on: VAPB (human)
# VDAC1 (human) = tested on: VDAC1 (human)
# VDP (human) = tested on: VDP (human)
# VEGFA (human) = tested on: VEGFA (human)
# VENTX (human) = tested on: VENTX (human)
# VHL (human) = tested on: VHL (human)
# VKORC1 (human) = tested on: VKORC1 (human)
# VNN3 (human) = tested on: VNN3 (human)
# VPS16 (human) = tested on: VPS16 (human)
# VPS25 (human) = tested on: VPS25 (human)
# VPS28 (human) = tested on: VPS28 (human)
# VPS29 (human) = tested on: VPS29 (human)
# VPS33B (human) = tested on: VPS33B (human)
# VPS36 (human) = tested on: VPS36 (human)
# VPS37A (human) = tested on: VPS37A (human)
# VPS41 (human) = tested on: VPS41 (human)
# VPS4B (human) = tested on: VPS4B (human)
# VPS8 (human) = tested on: VPS8 (human)
sequence,measurement,setting,value
GGGAGGCTGAGGCAGG [G4-1 biotinylated (PQS2)],binding signal,VANGL1,-0.336 z-score
same,binding signal,VAPA (human),-0.326 z-score
same,binding signal,VAPB (human),-0.333 z-score
same,binding signal,VDAC1 (human),-0.264 z-score
same,binding signal,VDP (human),-0.29 z-score
same,binding signal,VEGFA (human),-0.315 z-score
same,binding signal,VENTX (human),-0.275 z-score
same,binding signal,VHL (human),-0.298 z-score
same,binding signal,VKORC1 (human),-0.301 z-score
same,binding signal,VNN3 (human),-0.296 z-score
same,binding signal,VPS16 (human),-0.261 z-score
same,binding signal,VPS25 (human),-0.375 z-score
same,binding signal,VPS28 (human),-0.35 z-score
same,binding signal,VPS29 (human),-0.339 z-score and -0.346 z-score
same,binding signal,VPS33B (human),-0.33 z-score
same,binding signal,VPS36 (human),-0.355 z-score
same,binding signal,VPS37A (human),-0.348 z-score
same,binding signal,VPS41 (human),-0.299 z-score
same,binding signal,VPS4B (human),-0.334 z-score
same,binding signal,VPS8 (human),-0.315 z-score

# Fetched one by one from the entries so far:
sequence,measurement,setting,value
GGGAGGCTGAGGCAGG [G4-1 biotinylated (PQS2)],binding signal,VNN3 (human),-0.296 z-score
same,binding signal,VPS29 (human),-0.339 z-score and -0.346 z-score
